# Measured values from PubChem BioAssay AID2685 (National Center for Advancing Translational Sciences (NCATS), 2010).
# Out of some 320,000 compounds screened, about 2,100 (0.66%) were called active. Inconclusive means that the source gave no clear call. Such entries were picked first, then a sample of the others. Calls come from the whole dose curve; as a rule, active = well fitted inhibition curve with a large enough effect in the signal ratio, with a control signal flat (not every such curve was filed as active); inconclusive = small, poorly fitted or top-dose-only effect, or effect the other way, or a change in a side signal; inactive = flat fitted curve, though single readings scatter; the % refers to the signal ratio. Where the call is inconclusive, the potency comes from a doubtful curve fit.
# Assay: qHTS Assay for Lipid Storage Modulators in Drosophila S3 Cells
# Conditions: BODIPY lipid droplet fluorescence, 18-24 h, cells fed with added oleic acid; lipid storage change, negative = inhibition: at 46.1 µM (top of the series) unless noted
# Procedure, shortened: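 Laser-scanning cytometry quantifies lipid droplet accumulation (500–530 nm total intensity; droplet/cell object ratio) in oleic acid-fed (400 uM added) Drosophila S3 cells treated with a concentration series. 20 uM Triacsin C defined 100% inhibition.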
# % is set by controls: 0 for no effect and ±100 for the full control effect; potency is the fitted concentration of half-maximal effect.
SMILES,"lipid storage change, negative = inhibition",Potency
CN(C)/C=C/c1onc(-c2c(F)cccc2Cl)c1C#N,inconclusive: 32.8%,–
O=C(/C(C=Nc1cc2c(oc1=O)CCCC2=O)=C(\O)c1ccccc1)c1ccccc1,–,"inconclusive: 29.1 µM [cytotoxic, single point]"
Cc1ccnc(NS(=O)(=O)c2ccc(NC(=O)c3oc4ccc(F)cc4c3C)cc2)n1,–,"inconclusive: 29.1 µM [activator, single point]"
Oc1c(Br)cc(Br)cc1/C=N/n1c(-c2ccccc2)n[nH]c1=S,–,"inconclusive: 20.6 µM [activator, single point]"
O=[N+]([O-])c1cccc(Nc2nc(Cl)nc(Cl)n2)c1,inconclusive: 9.99%,–
COc1ccccc1OCC(=O)Nc1ccc(S(=O)(=O)Nc2cc(C)on2)cc1,inconclusive: 314%,–
N/C(=N\OC(=O)c1ccc(Cl)cc1Cl)c1ccncc1,inconclusive: -0.0889%,–
CC(C)NC(=O)C1CCN(C2CCN(Cc3ccc4cccc(F)c4n3)CC2)CC1,inconclusive: 19%,–
Cc1ccc2c(cnn2C(=O)CCC(=O)N2CCCCC2C)c1 (stereo not given),inconclusive: 22.5%,–
O=C(Nc1nc(N2C(=O)c3ccccc3C2=O)n(-c2ccccc2)n1)c1ccccc1,inconclusive: 3.54%,–
COc1ccc(S(=O)(=O)Nc2ccc(O)c(Sc3nc4ccccc4s3)c2)cc1,inconclusive: -7.42%,–
Cc1cc(C)n(-c2ccc(C(=O)OC(C)C(=O)Nc3ccc(C(N)=O)cc3)cc2)n1 (stereo not given),inconclusive,–
O=C(CN1Cc2ccccc2C1=O)Nc1ccc2c(c1)OCCO2,inconclusive: -81.4%,–
CCOc1ccc(N2CC(C(=O)Nc3ccc4c(c3)OCO4)CC2=O)cc1 (stereo not given),inconclusive: -7.33%,–
O=C(COc1ncnc2scc(-c3ccccc3)c12)NC1CCCc2ccccc21 (stereo not given),inconclusive: 19.1%,–
COc1ccc(S(=O)(=O)N(C)C)cc1NC(=O)CN1CCN(C(=O)C2CC2)CC1,inconclusive: 14.7%,–
Nc1sc2c(c1C(=O)NC1CCS(=O)(=O)C1)CCC2 (stereo not given),–,"inconclusive: 0.092 µM [cytotoxic, full curve, poor fit]"
Cc1cc(C(=O)COC(=O)c2ccc(O)cc2)c(C)n1Cc1ccco1,inconclusive: 6.91%,–
CCOc1c(Br)cc(C2NS(=O)(=O)N=C3CCCCCN32)cc1OC (stereo not given),inconclusive: -15.1%,–
CC1(C)CC(=O)c2cnn(-c3nc4ccccc4[nH]3)c2C1,inconclusive: 91.6%,–
Cc1ccc(/C=N/NC(=O)c2cccc([N+](=O)[O-])c2)o1,inconclusive: -10.3%,–
CCn1ncc(CN2CCCC(C(=O)Nc3cccc(-c4cc5ccccc5[nH]4)c3)C2)c1C (stereo not given),inconclusive: 25.3%,–
COc1ccc(NC(=O)/C=C/c2ccco2)cn1,inconclusive: -16.9%,–
CCOc1ccccc1NC(=O)CCCN1C(=S)NC(C)(C)CC1C (stereo not given),inconclusive: 24.1%,–
Cc1ccc(-c2csc(N3CCN(S(=O)(=O)c4ccc5c(c4)NC(=O)CO5)CC3)n2)cc1,–,"inconclusive: 6.51 µM [activator, partial curve, poor fit]"
C/C(=N\NC(=O)c1cc(-c2ccccc2C)nc2ccccc12)c1cccnc1,inconclusive: 5.05%,–
O=C(CSc1nc2nn(-c3ccccc3)c(=O)c-2c2n1CCCCC2)Nc1ccc(F)cc1F,inconclusive: -26.1%,–

SMILES,"lipid storage change, negative = inhibition",Potency
CCC(C)Nc1cc(C)c(C#N)c2nc3ccccc3n12 (stereo not given),inactive,–
CCOCCCn1c(=N)c(S(=O)(=O)c2ccccc2)cc2c(=O)n3cc(C)ccc3nc21,–,"inconclusive: 3.66 µM [activator, single point]"
c1ccc2c(c1)oc1c(NCC3CCCO3)ncnc12 (stereo not given),–,"inconclusive: 5.17 µM [falling, single point]"
O=C(O)CCn1c(=S)n(CCC(=O)O)c2ccccc21,inconclusive: -0.137%,–
CN(C(=O)c1ccccn1)c1nnc(-c2ccccn2)s1,inconclusive: 1.04%,–
Cc1ccc(-c2nnc(SCc3ccc(C#N)cc3)n2Cc2ccco2)cc1,inconclusive: -37.6%,–
O=[N+]([O-])c1ccccc1/C=C/CN1CCC(O)CC1,inconclusive: 23.5%,–
Cc1ccc(NC(=O)Cc2nnc(SCC(=O)c3ccc(Br)cc3)n2C)cc1,–,"inconclusive: 16.4 µM [rising, single point]"
CC1CCCC(NC(=O)CCNC(=O)c2ccc(Br)cc2)C1C (stereo not given),inconclusive: 15.6%,–
CCOC(=O)CCNC(=O)N1CCCC(N2CCN(c3ccc(OC)cc3)CC2)C1 (stereo not given),inconclusive: -17.4%,–
Cc1ccc(NS(=O)(=O)c2ccc(C(=O)N3CCCC(C(F)(F)F)C3)cc2)cc1 (stereo not given),inconclusive: 37.9%,–
CCC(C)(C)n1nnnc1C(c1ccc(C)cc1)N1CCC(C)CC1 (stereo not given),inconclusive: -0.0991%,–
C=CCNc1ncnc2c1cnn2-c1ccc(OC)cc1,inconclusive: -3.27%,–
Cc1cc(C(=O)N/N=C/c2cc(Cl)cc([N+](=O)[O-])c2O)c2ccccc2n1,–,"inconclusive: 14.6 µM [activator, single point]"
S=C(NCCCN1CCOCC1)Nc1ccc(Cl)cc1,inconclusive: -18.6%,–
NC(=S)N/N=C/c1c(O)ccc2ccccc12,inconclusive: 18.4%,–
CCOC(=O)Cc1csc(CC(N)=O)n1,inconclusive: -54%,–
COc1ccc(CC(=O)OCC(=O)Nc2cccc(C(C)=O)c2)cc1OC,inconclusive,–
Cc1cc(C(=O)OCC(=O)Nc2nc(-c3ccccc3)cs2)c(C)o1,inconclusive: 18.1%,–
COCCn1c(SCC(=O)NC2CC2)nnc1-c1ccc(Cl)cc1,inconclusive: 8.13%,–
CN(C)CCCNc1oc(/C=C/c2ccccc2)nc1C#N,inconclusive: 57.1%,–
COc1ccc(CN2CCN(C(=O)c3ccco3)CC2)cc1OC,inconclusive: -26.2%,–
CN(CC(=O)Nc1cccc(F)c1)CC(=O)N1CCc2ccccc21,–,"inconclusive: 1.64 µM [activator, partial curve, poor fit]"
O=C(NNc1ccccc1)C(CCO)C(=O)NNc1ccccc1,inconclusive: 1.12%,–
O=C(c1ccccc1)N1CCC(c2nc(-c3ccc(S(=O)(=O)NCC4CCCO4)cc3)no2)CC1 (stereo not given),–,"inconclusive: 4.61 µM [activator, single point]"
CCOC(=O)c1c(C)nc(SCC(N)=O)c(C#N)c1-c1ccccc1,inconclusive: 29.5%,–
O=C(CSc1nnnn1C1CCCC1)Nc1ccccc1F,inconclusive: 4.05%,–

SMILES,"lipid storage change, negative = inhibition",Potency
COc1ccc(NC(=O)C2CCN(S(=O)(=O)c3ccc4c(c3)NC(=O)C(C)S4)CC2)cc1 (stereo not given),inactive,–
COc1ccc(S(=O)(=O)N2CCCCC2)cc1NC(=O)CCCNC(=O)c1ccc(Cl)cc1,inconclusive: 19.9%,–
COc1ccc(-c2nnc(NC(=O)CSc3ccc(Cl)cc3)s2)cc1OC,–,"inconclusive: 0.0041 µM [activator, full curve, poor fit]"
COc1ccccc1/C=C/C(=O)Nc1nc(N)n(-c2ccccc2)n1,inconclusive: -17.4%,–
COc1ccc(CN(C)CC(=O)NC(=O)Nc2ccccc2F)cc1,inconclusive: 18.5%,–
O=C(CN1CCN(Cc2ccc(Cl)cc2)CC1)N/N=C/c1c[nH]c2ccccc12,inconclusive: 14.1%,–
CN1CCN(C(=O)CCC(=O)NCc2ccc(F)cc2)CC1,–,"inconclusive: 3.26 µM [falling, single point]"
COc1ccc(CNC(=O)COC(=O)c2cncc(Br)c2)cc1,inconclusive: 42.9%,–
CC1=C([N+](=O)[O-])C(c2ccc(Cl)cc2)NC(=O)N1 (stereo not given),inconclusive: 34.6%,–
CC(C)(CNS(=O)(=O)c1ccc(Cl)cc1)N1CCCCC1,inconclusive: 29%,–
CCCNC(=O)C12CCC(C)(C(=O)O1)C2(C)C (stereo not given),inconclusive: 45%,–
CC(Oc1ccc(Cl)cc1Cl)C(=O)Nc1ccc2oc(-c3ccncc3)nc2c1 (stereo not given),inconclusive: 3.57%,–
Cc1cc(=O)c(C(=O)O)nn1-c1ccccc1F,inconclusive: 44.2%,–
CC(Sc1nc2ccccc2s1)C(=O)Nc1nnc(C(C)C)s1 (stereo not given),inconclusive: 41.4%,–
Cc1cc(C)c(OCC(=O)Nc2nnc(C3CC3)s2)c(C)c1,inconclusive,–
Cc1cccc(-n2ncc3c(NCc4ccc5c(c4)OCO5)ncnc32)c1,–,"inconclusive: 2.06 µM [activator, full curve, poor fit]"
CCOC(=O)CNC(=O)CSc1nc2sc(C)c(C)c2c(=O)n1C,–,"inconclusive: 29.1 µM [rising, partial curve, poor fit]"
Cc1ccc(C2=NN(Cc3nnc(-c4ccccc4)o3)C(=O)SC2)cc1,inconclusive: 0.118%,–
O=S(=O)(N[C@@H]1C[C@H]2CC[C@@H]1C2)c1cccs1,inconclusive: -9.31%,–
CS(=O)(=O)Nc1nc2n(n1)C(c1ccc(F)cc1)CC(c1ccccc1)N2 (stereo not given),inconclusive: -12.7%,–
COc1ccccc1CNS(=O)(=O)c1c(C)[nH]c(=O)[nH]c1=O,inconclusive: -41.5%,–
C/C(=N\NC(=O)C(=O)N/N=C(\C)c1cccc(O)c1)c1cccc(O)c1,–,"inconclusive: 29.1 µM [falling, partial curve, poor fit]"
CCOc1ccc(-c2csc(NC(=O)c3ccc(S(=O)(=O)N4CCc5ccccc5C4)cc3)n2)cc1,inconclusive: 17.7%,–
O=C(c1ccc(Cl)c(S(=O)(=O)N2CCCCCC2)c1)N1CCOCC1,inconclusive: -3.74%,–
CC1CCN(C(=S)Nc2ccc(SC(F)F)cc2)CC1,inconclusive: 0.756%,–
Cc1ccc(/C=N/Nc2ccc(Cl)c(C(=O)O)c2)s1,inconclusive: 10.9%,–

# Random excerpt: 6 entries already listed, in no set order.
SMILES,"lipid storage change, negative = inhibition",Potency
CCOC(=O)CNC(=O)CSc1nc2sc(C)c(C)c2c(=O)n1C,–,"inconclusive: 29.1 µM [rising, partial curve, poor fit]"
O=S(=O)(N[C@@H]1C[C@H]2CC[C@@H]1C2)c1cccs1,inconclusive: -9.31%,–
Cc1ccc(/C=N/Nc2ccc(Cl)c(C(=O)O)c2)s1,inconclusive: 10.9%,–
CC(Sc1nc2ccccc2s1)C(=O)Nc1nnc(C(C)C)s1 (stereo not given),inconclusive: 41.4%,–
CN1CCN(C(=O)CCC(=O)NCc2ccc(F)cc2)CC1,–,"inconclusive: 3.26 µM [falling, single point]"
O=C(CN1CCN(Cc2ccc(Cl)cc2)CC1)N/N=C/c1c[nH]c2ccccc12,inconclusive: 14.1%,–
